Laboratory results from patent publication US20230174617A1.
No constants are given. Whether binding was seen depends on the method and setting. Some results given as binding are weak or reduced against the parent protein; the word gives no strength. Tags and fused reporters may be left off the sequences shown.

Biological target: T1, IL-10 receptor 1 (IL-10R1), IL-10R His-tag protein (UniProt Q13651)
T1 sequence (looked up): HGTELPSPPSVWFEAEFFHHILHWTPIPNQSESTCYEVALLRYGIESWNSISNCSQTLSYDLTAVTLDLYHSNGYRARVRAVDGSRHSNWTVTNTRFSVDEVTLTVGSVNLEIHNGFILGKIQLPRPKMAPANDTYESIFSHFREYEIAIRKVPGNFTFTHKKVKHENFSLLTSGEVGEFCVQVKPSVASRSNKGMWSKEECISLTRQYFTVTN
Test: BLI, IL-10R His-tag protein on the amine sensor, fusion protein as analyte

B1: PG-088m (NTIG-IL-10Vm) (Fc fusion)
chain: SHTQPLGVFLFPPKPKDQLMISRTPEVTCVVVDVSQEDPEVQFNWYVDGVEVHNAKTKPREEQFNSTYRVVSVLTVLHQDWLNGKEYKCKVSNKGLPSSIEKTISKAKGQPREPQVYTLPPSQEEMTKNQVSLTCLVKGFYPSDIAVEWESNGQPENNYKTTPPVLDSDGSFFLYSRLTVDKSRWQEGNVFSCSVLHEALHNHYTQKSLSLSLGAAGSGGGGGSGGGGSGGGGSSPGQGTQSENSCTHFPGNLPNMLRDLRDAFSRVKTFFQMKDQLDNLLLKESLLEDFKGYLGCQALSEMIQFYLEEVMPQAENQDPDAKAHVNSLGENLKTLRLRLRRCHRFLPCENGGSGGSGGSKSKAVEQVKNAFNKLQEKGIYKAMSEFDIFINYIEAYMTMKIRN
- binding: binds
